# Laboratory results: patent US8742167B2, “Therapeutic formulations based on asiatic acid and selected salts thereof” (Shanghai Institute of Pharmaceutical Industry, priority 2008, dated 2014)
# At least one compound was matched to its structure with a doubt left.
# System: bleomycin-induced pulmonary fibrosis in rats
# Test: Mortality during experiment days 7-28, bleomycin-induced pulmonary fibrosis in rats
# Assay type: in vivo, SD rats
# Conditions: rats treated with bleomycin, treatment initiated one day or seven days after bleomycin
# Protocol: Male SD rats, body weight 250-300 g. The animals were anesthetized with 3% seconal, laid flat and fixed onto the operating table. The necks of the animals were disinfected with alcohol and cut to expose tracheae. A needle was inserted via the space between tracheal rings centripetally, and 5 mg/kg of bleomycin was injected. The rats were kept upright and rotated, in order to keep the solution uniformly distributed in the lungs. Then the incisions were sutured.
# After the rats regained consciousness, they were randomly grouped. The animals were divided into (i) a group receiving administration on the next day after establishing the model and (ii) a group receiving administration at 7 days after the model was established. Included were 27, 9, and 3 mg/kg p.o.×28 d asiatic acid groups, 0.6 mg/kg p.o.×28 d dexamethasone group, 36 mg/kg p.o.×28 d asiaticoside group, model group, and blank group. Normal saline was administered for the model and blank groups. On the 28th day after asiatic acid and asiaticoside administration, survival and weight ratio of lungs were measured; pathological examination and serological examination were performed.
smiles,measurement,setting,value
"C[C@@H]1C[C@H]2[C@@H]3CCC4=CC(=O)C=C[C@]4(C)[C@@]3(F)[C@@H](O)C[C@]2(C)[C@@]1(O)C(=O)CO [Dexamethasone, reference compound]",survival / bleomycin-induced death (words),,not able to protect rats from bleomycin-induced death
same,survival / bleomycin-induced death (words),listed as dexamethasone,does not significantly enhance rat survival
